# Reference: the supplement of paper PMC12823440, “Inhibitors supercharge kinase turnover through native proteolytic circuits” (Nature, 2025)
# Chains of the proteins cited; added tags and fusions are not shown. Lines headed by an entry give the natural chain unless they say otherwise; changes in a name come on top.
# UniProt P23458: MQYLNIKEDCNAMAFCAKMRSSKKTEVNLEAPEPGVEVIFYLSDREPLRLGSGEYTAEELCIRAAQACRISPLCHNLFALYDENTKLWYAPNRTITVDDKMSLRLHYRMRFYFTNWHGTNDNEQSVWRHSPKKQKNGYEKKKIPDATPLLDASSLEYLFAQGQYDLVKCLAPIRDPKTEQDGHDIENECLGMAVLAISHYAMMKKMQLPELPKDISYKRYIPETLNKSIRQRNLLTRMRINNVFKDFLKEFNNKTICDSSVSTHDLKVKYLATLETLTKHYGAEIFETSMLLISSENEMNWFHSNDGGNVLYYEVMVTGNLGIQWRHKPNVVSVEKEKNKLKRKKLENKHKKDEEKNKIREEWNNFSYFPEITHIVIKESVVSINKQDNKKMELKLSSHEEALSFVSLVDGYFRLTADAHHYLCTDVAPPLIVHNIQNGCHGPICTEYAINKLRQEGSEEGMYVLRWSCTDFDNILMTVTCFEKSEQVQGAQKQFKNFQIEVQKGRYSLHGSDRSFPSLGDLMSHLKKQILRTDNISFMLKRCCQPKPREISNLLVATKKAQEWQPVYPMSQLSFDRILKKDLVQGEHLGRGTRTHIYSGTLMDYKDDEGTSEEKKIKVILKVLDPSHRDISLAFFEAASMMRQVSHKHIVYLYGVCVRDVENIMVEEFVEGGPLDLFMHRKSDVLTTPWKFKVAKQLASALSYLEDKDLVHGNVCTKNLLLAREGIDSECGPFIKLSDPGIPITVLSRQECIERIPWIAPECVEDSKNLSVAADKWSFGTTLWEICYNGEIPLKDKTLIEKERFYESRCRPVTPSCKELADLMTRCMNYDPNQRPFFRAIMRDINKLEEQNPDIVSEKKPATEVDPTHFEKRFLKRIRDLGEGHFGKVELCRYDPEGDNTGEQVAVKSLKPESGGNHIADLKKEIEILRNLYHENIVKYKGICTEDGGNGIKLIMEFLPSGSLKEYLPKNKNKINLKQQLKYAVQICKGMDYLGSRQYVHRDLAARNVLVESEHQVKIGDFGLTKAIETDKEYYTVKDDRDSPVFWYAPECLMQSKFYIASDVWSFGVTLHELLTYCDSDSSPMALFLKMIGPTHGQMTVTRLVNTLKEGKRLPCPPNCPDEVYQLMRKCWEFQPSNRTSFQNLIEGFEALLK
# Counter-ions that a name gives are not always drawn. This is one part of the list. Hit calls seldom repeat between salt and free forms of one compound.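 In K562 cells expressing nanoluciferase-fused kinases, luminescence was recorded at 4 h intervals between 2 and 18 h, normalized as percent of control with DMSO at 100% and a positive control at 0%. A significant (2 sigma) signal drop marks a time point as decreased. The authors' rule for a hit is not shown and takes in more than the number of time points.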
# Target: JAK1 (UniProt P23458)
# Test: kinase-Nluc reporter destabilization hit call (1 = scored as downregulated) (binary); higher = compound decreases kinase abundance
# Details: 2.5 µM; K562; 2-18 h
row,SMILES,kinase-Nluc reporter destabilization hit call
1,Nc1nc(Nc2ccc(S(N)(=O)=O)cc2)nn1C(=O)c1c(F)cccc1F,inactive: 0
2,CCOc1cc2ncc(C#N)c(Nc3ccc(F)c(Cl)c3)c2cc1NC(=O)/C=C/CN(C)C [Pelitinib],inactive: 0
3,Nc1ncnc2c1c(-c1cnc3[nH]ccc3c1)nn2C1CCCC1,inactive: 0
4,CCN(CC)CCNC(=O)c1c(C)[nH]c(/C=C2\C(=O)Nc3ccc(F)cc32)c1C [Sunitinib],inactive: 0
5,C=CC(=O)Nc1cc2c(Nc3ccc(F)c(Cl)c3)ncnc2cc1OCCCN1CCOCC1 [Canertinib (dihydrochloride)],inactive: 0
6,Cc1cc(Nc2cc(N3CCN(C)CC3)nc(/C=C/c3ccccc3)n2)n[nH]1 [ENMD-2076 (Tartrate)],inactive: 0
7,O=C(Nc1cccc(Nc2nccc(Nc3cccc(C(F)(F)F)c3)n2)c1)C1CC1 [Aurora kinase inhibitor-3],inactive: 0
8,CN1CCN(c2ccc3nc(-c4c(N)c5c(F)cccc5[nH]c4=O)[nH]c3c2)CC1 [Dovitinib],inactive: 0
9,O=C1NCCc2[nH]c(-c3ccncc3)cc21,inactive: 0
10,CC1(C)CNc2cc(NC(=O)c3cccnc3NCc3ccncc3)ccc21 [Motesanib (Diphosphate)],inactive: 0
11,CC(=O)c1c(C)c2cnc(Nc3ccc(N4CCN(C(=O)CCCCCC(=O)N[C@H](C(=O)N5C[C@H](O)C[C@H]5C(=O)NCc5ccc(-c6scnc6C)cc5)C(C)(C)C)CC4)cn3)nc2n(C2CCCC2)c1=O,inactive: 0
12,COc1cc2/c(=N/c3ccc(Br)cc3F)nc[nH]c2cc1OCC1CCN(C)CC1 [Vandetanib],inactive: 0
13,CC(C)n1nc(-c2cc3cc(O)ccc3[nH]2)c2c(N)ncnc21 [Torkinib],inactive: 0
14,Cc1nc(Nc2ncc(C(=O)Nc3c(C)cccc3Cl)s2)cc(N2CCN(CCO)CC2)n1 [Dasatinib],inactive: 0
15,CC1(C)C(=O)N([C@H]2CCc3c(O)cccc32)c2nc(Nc3cccc(CN4CCCC4)c3)ncc21,inactive: 0
16,CNC(=O)c1cc(Oc2ccc(NC(=O)Nc3ccc(Cl)c(C(F)(F)F)c3)cc2)ccn1 [Sorafenib],inactive: 0
17,CN1CCN(c2ccc3nc(-c4c(N)c5c(F)cccc5[nH]c4=O)[nH]c3c2)CC1 [Dovitinib (lactate)],inactive: 0
18,CC1(C)CNc2cc(NC(=O)c3cccnc3NCc3ccncc3)ccc21 [Motesanib],inactive: 0
19,Cc1cc(Nc2cc(N3CCN(C)CC3)nc(/C=C/c3ccccc3)n2)n[nH]1,inactive: 0

# In a second layout: entries from further up.
row | SMILES | kinase-Nluc reporter destabilization hit call
1 | Nc1nc(Nc2ccc(S(N)(=O)=O)cc2)nn1C(=O)c1c(F)cccc1F | inactive: 0
3 | Nc1ncnc2c1c(-c1cnc3[nH]ccc3c1)nn2C1CCCC1 | inactive: 0
6 | Cc1cc(Nc2cc(N3CCN(C)CC3)nc(/C=C/c3ccccc3)n2)n[nH]1 [ENMD-2076 (Tartrate)] | inactive: 0
8 | CN1CCN(c2ccc3nc(-c4c(N)c5c(F)cccc5[nH]c4=O)[nH]c3c2)CC1 [Dovitinib] | inactive: 0
9 | O=C1NCCc2[nH]c(-c3ccncc3)cc21 | inactive: 0
14 | Cc1nc(Nc2ncc(C(=O)Nc3c(C)cccc3Cl)s2)cc(N2CCN(CCO)CC2)n1 [Dasatinib] | inactive: 0
17 | CN1CCN(c2ccc3nc(-c4c(N)c5c(F)cccc5[nH]c4=O)[nH]c3c2)CC1 [Dovitinib (lactate)] | inactive: 0
18 | CC1(C)CNc2cc(NC(=O)c3cccnc3NCc3ccncc3)ccc21 [Motesanib] | inactive: 0
19 | Cc1cc(Nc2cc(N3CCN(C)CC3)nc(/C=C/c3ccccc3)n2)n[nH]1 | inactive: 0

# Same assay, conditions: 10 µM; K562; 2-18 h
row,SMILES,kinase-Nluc reporter destabilization hit call
1,COc1nccc(-c2c(-c3ccc(F)cc3)ncn2C2CCNCC2)n1,inactive: 0
2,COc1ccc(-c2c[nH]c3nccc(-c4ccsc4)c23)c(OC)c1,inactive: 0
3,C[C@@]1(C(=O)Nc2ccc(F)nc2)CCCN1c1nc(Nc2cc(C3CC3)n[nH]2)c2cccn2n1,inactive: 0
4,Cc1ccc(Nc2nccc(N(C)c3ccc4c(C)n(C)nc4c3)n2)cc1S(N)(=O)=O [Pazopanib],inactive: 0
5,Cc1cc2c(F)c(Oc3ncnn4cc(OC[C@@H](C)O)c(C)c34)ccc2[nH]1 [Brivanib],inactive: 0
6,C=CC(=O)Nc1cc2c(Nc3ccc(F)c(Cl)c3)ncnc2cc1OCCCN1CCOCC1 [Canertinib],inactive: 0
7,Cc1ccc(Nc2nccc(N(C)c3ccc4c(C)n(C)nc4c3)n2)cc1S(N)(=O)=O [Pazopanib (Hydrochloride)],inactive: 0
8,CC(C)(C)n1nc(-c2ccc(Cl)cc2)c2c(N)ncnc21,inactive: 0
9,COc1cc2ncnc(Nc3ccc(F)c(Cl)c3)c2cc1OCCCN1CCOCC1 [Gefitinib],inactive: 0
10,O=C(Nc1cccc(Cl)c1)Nc1ncc(CCNc2ncnc3ccsc23)s1 [SNS-314 (mesylate)],inactive: 0
11,CC[C@@H]1C(=O)N(C)c2cnc(Nc3ccc(C(=O)NC4CCN(C)CC4)cc3OC)nc2N1C1CCCC1,inactive: 0
12,CC#CC(=O)N1CCC[C@H]1c1nc(-c2ccc(C(=O)Nc3ccccn3)cc2)c2c(N)nccn12 [Acalabrutinib],inactive: 0
13,O=S(=O)(c1cccc2c(O)nccc12)N1CCCNCC1 [Hydroxyfasudil (hydrochloride)],inactive: 0
14,O=C1Cc2c([nH]c3ccc(Br)cc23)-c2ccccc2N1 [Kenpaullone],inactive: 0
15,O=S(=O)(c1cccc2c(O)nccc12)N1CCCNCC1 [Hydroxyfasudil],inactive: 0
16,CC(C)N(CCC(=O)c1ccc2ccccc2c1)Cc1ccccc1,inactive: 0
17,Cc1cc2ncnn2cc1Nc1ncc2c(n1)n(C1CCOCC1)c(=O)n2C,inactive: 0
18,O=C(NCCCNc1nc(Nc2cccc(CN3CCOCC3)c2)ncc1C1CC1)C1CCC1,inactive: 0
19,CNC(=O)c1cc(Oc2ccc(NC(=O)Nc3ccc(Cl)c(C(F)(F)F)c3)cc2)ccn1 [Sorafenib (Tosylate)],inactive: 0
